Results are given in words; binding and its absence hold for the method and conditions named. Some binding calls cover weakened binding; strength is not graded here.
T1: Recombinant human MPL (human, UniProt P40238 26-491, limits assumed)
T1 construct: also called hu-mpl; hu-MPL
T1 sequence (looked up): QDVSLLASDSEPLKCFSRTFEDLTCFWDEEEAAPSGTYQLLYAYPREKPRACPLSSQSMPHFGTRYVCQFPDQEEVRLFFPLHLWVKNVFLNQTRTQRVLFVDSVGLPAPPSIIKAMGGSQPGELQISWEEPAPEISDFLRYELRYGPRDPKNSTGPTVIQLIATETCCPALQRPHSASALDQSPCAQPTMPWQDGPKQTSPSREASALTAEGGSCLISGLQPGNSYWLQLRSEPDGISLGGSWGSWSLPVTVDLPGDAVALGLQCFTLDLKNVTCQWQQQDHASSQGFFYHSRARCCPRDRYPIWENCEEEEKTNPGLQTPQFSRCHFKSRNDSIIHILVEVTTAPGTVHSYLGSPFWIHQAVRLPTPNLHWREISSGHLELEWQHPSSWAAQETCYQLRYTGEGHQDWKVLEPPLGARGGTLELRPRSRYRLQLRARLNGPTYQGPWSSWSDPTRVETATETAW


Biological target: T1, Recombinant human MPL
Test: phage ELISA titration: phagemid particles displaying the peptide, 5-fold dilution series (cfu/ul), on plate-coated recombinant human MPL, HRP-anti-M13 detection, chemiluminescent readout (Example 1, sections 4B and 5)

Binder	binding
QGCSSGGPTLREWLQCRRMQHS [TMP22 (22-residue capped peptide)]	binds
QGCSWGGPTLKQWLQCVRAKHS [TMP23 (22-residue capped peptide)]	binds

From patent US20110229472A1 (Amgen, published 2011)
